# Results reported in the supplement of paper PMC7752906.
# Structures can show the parent of a compound that is named as a salt. Some of the results follow. This data set is noisy: repeats of one test often differ as much as different tests do.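 About 40 Schistosoma mansoni schistosomula per well were imaged over time in bright field and compared with 0.1% DMSO wells. A drug counts as a hit if its Mahalanobis distance reaches 2.47 or more, three standard deviations above the DMSO control mean. Degeneracy is the fraction of worms scored opaque.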
# Tested on: Schistosoma mansoni schistosomula
# Assay: degeneracy (percent of somules classified as degenerate/opaque); higher = more parasite degeneration/death; extreme values may be limits of the assay
# Settings: 10 µM; 72 h
row,Structure (SMILES),degeneracy [%]
1,O=C1Nc2ccc(Cl)cc2C(c2ccccc2Cl)=NC1O (stereo not drawn) [Lorazepam],4.44
2,NCc1cccnc1 [Picolamine],0
3,CC(N)Cc1ccc(O)cc1 (stereo not drawn) [Hydroxyamphetamine Hydrobromide],21.1
4,O=[N+]([O-])C(Br)(CO)CO [Bronopol],100
5,CN1[C@@H]2C[C@@H](OC(=O)[C@H](CO)c3ccccc3)C[C@H]1[C@@H]1O[C@@H]12 [Scopolamine],10.7
6,CN[C@@H](C)[C@@H](O)c1ccccc1 [Pseudoephedrine],7.5
7,CN1C[C@H](C(=O)N[C@]2(C)O[C@@]3(O)[C@@H]4CCCN4C(=O)[C@H](Cc4ccccc4)N3C2=O)C=C2c3cccc4[nH]cc(c34)C[C@H]21 [Ergotamine],0
8,O=c1n(Cl)c(=O)n(Cl)c(=O)n1Cl [Symclosene],20
9,C=CCN1CC[C@]23c4c5ccc(O)c4O[C@H]2C(=O)CC[C@@]3(O)[C@H]1C5 [Naloxone],3.57
10,C=CCN1CC[C@]23c4c5ccc(O)c4O[C@H]2C(=O)CC[C@@]3(O)[C@H]1C5 [Naloxone Hydrochloride],10.3
11,"CC[C@@H](C(=O)[C@@H](C)[C@@H](O)[C@H](C)[C@@H]1O[C@@H]([C@@H](CC)C(=O)O)CC[C@@H]1C)[C@H]1O[C@]2(C=C[C@@H](O)[C@]3(CC[C@@](C)([C@H]4CC[C@](O)(CC)[C@H](C)O4)O3)O2)[C@H](C)C[C@@H]1C [Salinomycin, Sodium]",100
12,CCC1(c2ccccc2)C(=O)NC(=O)NC1=O [Phenobarbital],6.67
13,Cc1cccc(C)c1NC(=O)CN1CCCC1=O [Nefiracetam],9.09
14,"C[C@]12CCC(=O)C=C1C=C[C@@H]1[C@@H]2CC[C@@]2(C)[C@H]1CC[C@@]2(O)CCC(=O)O [Canrenoic Acid, Potassium Salt]",8.7
15,S=C=NCc1ccccc1 [Benzyl Isothiocyanate],100
16,O=c1c2ccccc2[se]n1-c1ccccc1 [Ebselen],100
17,CC(=O)O[C@H]1C[C@@H]2CC[C@@H]3[C@H](CC[C@@]4(C)[C@H]3C[C@H]([N+]3(C)CCCCC3)[C@@H]4OC(C)=O)[C@@]2(C)C[C@@H]1[N+]1(C)CCCCC1 [Pancuronium Bromide],3.85
18,CC1C=CC=CCCC=CC=CC=CC=CC(OC2OC(C)C(O)C(N)C2O)CC2OC(O)(CC(O)C(O)CCC(O)CC(O)CC(O)CC(=O)OC(C)C(C)C1O)CC(O)C2C(=O)O (stereo not drawn) [Nystatin],4.55
19,C[C@]12CC[C@H](O)CC1=CC[C@@H]1[C@@H]2CC[C@]2(C)C(=O)CC[C@@H]12 [Prasterone],7.69
20,COc1cc2c(c(OC)c1OC)-c1ccc(OC)c(=O)cc1[C@@H](NC(C)=O)CC2 [colchicine],5.26
21,CC[C@@H](CO)NC(=O)[C@@H]1C=C2c3cccc4c3c(cn4C)C[C@H]2N(C)C1 [Methysergide Maleate],13.6
22,c1ccc2c(c1)OCC(C1=NCCN1)O2 (stereo not drawn) [Idazoxan Hydrochloride],12.9
23,CC(C)c1cccc(C(C)C)c1O [Propofol],100
24,CN1C[C@H](CNC(=O)OCc2ccccc2)C[C@@H]2c3cccc4c3c(cn4C)C[C@H]21 [Metergoline],100
25,Oc1ccc2c3c1O[C@H]1[C@@H](O)CC[C@@]4(O)[C@@H](C2)N(CC2CCC2)CC[C@]314 [Nalbuphine],16.2
26,NCC1(CC(=O)O)CCCCC1 [Gabapentin],3.03

row,Structure (SMILES),degeneracy [%]
1,O=[N+]([O-])O[C@H]1CO[C@H]2[C@@H]1OC[C@H]2O[N+](=O)[O-] [Isosorbide Dinitrate],4.17
2,CC(N)C(O)c1ccccc1 (stereo not drawn) [Phenylpropanolamine],0
3,CCCCOC(=O)c1ccccc1C(=O)OCCCC [Dibutyl Phthalate],6.06
4,O=C(O)c1nn(Cc2ccc(Cl)cc2Cl)c2ccccc12 [Lonidamine],13.3
5,"COc1ccc2c(c1OC)C(=O)O[C@@H]2[C@H]1c2cc3c(cc2CCN1C)OCO3 [Hydrastine (1r, 9s)]",4.17
6,Cc1nnc2n1-c1ccc(Cl)cc1C(c1ccccc1)=NC2 [Alprazolam],10.6
7,C[C@@H]1CN([C@H]2CC[C@](C#N)(c3ccc(F)cc3)CC2)CC[C@]1(C(=O)O)c1ccccc1 [Levocabastine hcl],3.33
8,CCC1(CC)C(=O)NC(=O)NC1=O [Barbital],2.86
9,CCC(=O)O[C@H]1CC[C@H]2[C@@H]3CCC4=CC(=O)CC[C@]4(C)[C@H]3CC[C@]12C [Testosterone Propionate],40.6
10,COc1ccc(OC)c(C(O)C(C)N)c1 (stereo not drawn) [Methoxamine],7.69
11,CCCC(C)(COC(N)=O)COC(=O)NC(C)C (stereo not drawn) [Carisoprodol],7.14
12,COC(C)(C)CCC[C@H](C)C/C=C/C(C)=C/C(=O)OC(C)C [Methoprene (s)],2.22
13,CC(O)CN1CCN(CC(=O)[O-])CCN(CC(=O)[O-])CCN(CC(=O)[O-])CC1.[Gd+3] (stereo not drawn) [Gadoteridol],5.13
14,N[C@@H]1C[C@H]1c1ccccc1.N[C@H]1C[C@@H]1c1ccccc1 [Tranylcypromine],100
15,C#CC(C)(O)CC (stereo not drawn) [Meparfylon],0
16,CCOP(=S)(OCC)Oc1ccc2c(C)c(Cl)c(=O)oc2c1 [Coumophos],25
17,CCC(=O)O[C@](Cc1ccccc1)(c1ccccc1)[C@H](C)CN(C)C [Propoxyphene],2.63
18,C=C1C[C@@H]2[C@H](CC[C@]3(C)C(=O)CC[C@@H]23)[C@@]2(C)C=CC(=O)C=C12 [Exemestane],100
19,CCOc1cc(C=O)ccc1O [Ethyl Vanillin],5.71
20,C[C@]12C/C(=C/O)C(=O)C[C@@H]1CC[C@@H]1[C@@H]2CC[C@@]2(C)[C@H]1CC[C@]2(C)O [Oxymetholone],6
21,CCOP(=S)(OCC)Oc1nc(Cl)c(Cl)cc1Cl [Chlorpyrifos],5
22,CNC(=O)Oc1ccccc1OC(C)C [Propoxur],5.88
23,CC(=O)NC1CCSC1=O (stereo not drawn) [Citiolone],13.3
24,c1ccc2c(c1)sc1ccccc12 [Dibenzothiophene],5.56
25,C[C@]12CCC(=O)C=C1CC[C@@H]1[C@@H]2CC[C@@]2(C)[C@H]1CC[C@]2(C)O [Methyltestosterone],14.3
26,CC(C)C[C@H]1C(=O)N2CCC[C@H]2[C@]2(O)O[C@](NC(=O)[C@@H]3C=C4c5cccc6[nH]c(Br)c(c56)C[C@H]4N(C)C3)(C(C)C)C(=O)N12 [Bromocriptine Mesylate],61.9

# Laid out differently: entries from further up
row	Structure (SMILES)	degeneracy [%]
1	O=[N+]([O-])O[C@H]1CO[C@H]2[C@@H]1OC[C@H]2O[N+](=O)[O-] [Isosorbide Dinitrate]	4.17
2	CC(N)C(O)c1ccccc1 (stereo not drawn) [Phenylpropanolamine]	0
3	CCCCOC(=O)c1ccccc1C(=O)OCCCC [Dibutyl Phthalate]	6.06

# Following part:

row,Structure (SMILES),degeneracy [%]
1,CNCC(O)c1ccc(O)cc1 (stereo not drawn) [Oxedrine],6.9
2,"CCOP(=S)(OCC)Oc1cc(C)nc(C(C)C)n1 [Diazinon, Dimpylate]",90.9
3,CNC(C)(C)Cc1ccccc1 [Mephentermine Sulfate],3.45
4,C[C@]12CCC(=O)C(O)=C1CC[C@@H]1[C@@H]2CC[C@]2(C)C(=O)CC[C@@H]12 [Formestane],17.3
5,CN(C)C(=O)Oc1cccc([N+](C)(C)C)c1 [Neostigmine Bromide],2.94
6,CN1[C@H]2C[C@H](OC(=O)[C@H](CO)c3ccccc3)C[C@@H]1[C@@H](O)C2 [Anisodamine Hydrobromide],0
7,CN1CCc2cc3c(cc2C1O)OCO3 (stereo not drawn) [Hydrastinine Hydrochloride],0
8,NP(N)(=O)NC(=O)c1ccc(F)cc1 [Flurofamide],2.94
9,O=c1[nH]c2ccccc2n1C1CCN(CCCC(c2ccc(F)cc2)c2ccc(F)cc2)CC1 [pimozide],100
10,CN(C)C(=O)Oc1ccc[n+](C)c1 [Pyridostigmine Bromide],8.16
11,C#CCN(C)[C@H](C)Cc1ccccc1 [Selegiline],0
12,NCCCNCCSP(=O)(O)O [Amifostine],0
13,NC(=O)CN1CCCC1=O [Piracetam],0
14,O=c1[nH]c(=O)n(Cl)c(=O)n1Cl [Troclosene Potassium],7.14
15,CC(C)c1c(CN(C)C(C)Cc2ccccc2)n(C)n(-c2ccccc2)c1=O (stereo not drawn) [Famprofazone],32.3
16,C=CCN1C[C@H](C(=O)N(CCCN(C)C)C(=O)NCC)C[C@@H]2c3cccc4[nH]cc(c34)C[C@H]21 [Cabergoline],15.6
17,Clc1ccc(C(OCCN2CCCCC2)c2ccccc2)cc1 (stereo not drawn) [Cloperastine Hydrochloride],100
18,C[C@@H](CO)NC(=O)[C@@H]1C=C2c3cccc4[nH]cc(c34)C[C@H]2N(C)C1 [Ergonovine],26.7
19,C[C@@H](CO)NC(=O)[C@@H]1C=C2c3cccc4[nH]cc(c34)C[C@H]2N(C)C1 [Ergonovine Maleate],19.4
20,O=C1CN=C(c2ccccc2)c2cc([N+](=O)[O-])ccc2N1 [Nitrazepam],7.14
21,C[C@@H]1CC[C@H]2[C@@H](C)C(=O)O[C@@H]3O[C@@]4(C)CC[C@@H]1[C@]32OO4 [Artemisinin],6.67
22,COc1cc([C@@H]2c3cc4c(cc3[C@H](O)[C@H]3COC(=O)[C@H]23)OCO4)cc(OC)c1OC [podofilox],0
23,CC(CC(C(N)=O)(c1ccccc1)c1ccccc1)N(C)C (stereo not drawn) [Aminopentamide Sulfate],0
24,OC[C@@H](O)[C@H]1O[C@@H]2O[C@H](C(Cl)(Cl)Cl)O[C@@H]2[C@H]1O [Chloralose],3.12
25,C[N+]12CCC(CC1)C(OC(=O)C(O)(c1ccccc1)c1ccccc1)C2 (stereo not drawn) [Clidinium Bromide],0
26,CO[C@]12C[C@@H](COC(=O)c3cncc(Br)c3)CN(C)[C@@H]1Cc1cn(C)c3cccc2c13 [Nicergoline],35.3

# Given with tabs: part of the list above
row	Structure (SMILES)	degeneracy [%]
24	OC[C@@H](O)[C@H]1O[C@@H]2O[C@H](C(Cl)(Cl)Cl)O[C@@H]2[C@H]1O [Chloralose]	3.12
25	C[N+]12CCC(CC1)C(OC(=O)C(O)(c1ccccc1)c1ccccc1)C2 (stereo not drawn) [Clidinium Bromide]	0
